Results deposited as PubChem BioAssay AID720505 (Drosophila RNAi Screening Center, 2013).
Aim: 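Knock-downs that reduce calcium influx once internal stores are emptied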 (primary screen). Cells: Drosophila S2R+ cells. Reagents: long dsRNA against Drosophila genes. Conditions: thapsigargin (2 µM) in calcium-free buffer to empty internal stores, then 2 mM calcium added back. Read-out: 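Stores emptied by 2 µM thapsigargin without calcium, then 2 mM calcium re-added; fluo-4 fluorescence followed by FLIPR in 384-well plates, per-well averaged endpoint, raw; two screen passes, some wells retested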. Direction: calcium signal and retest calcium signal: higher = more calcium entry after store depletion. Call rule: 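Knock-downs counted as hits when calcium entry dropped relative to STIM1 positive and Rho1 negative controls present on each plate; roughly 1500 genes called, with reductions of differing size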. Calls: active = called as lowering calcium entry; inactive = not called.
The deposit covers about 20,000 reagents; this is a random part of those with a known target gene and a result. Over the whole deposit, about 2,100 (10%) were called active. 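Raw plate signals without normalisation; calls rest on control-based scores that were not deposited; replicate 2 separates called from uncalled poorly.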 Names joined by + are all predicted targets of the reagent. Not given: the amount of reagent, the time to read-out.

no.	target gene	dsRNA	calcium signal, replicate 1	calcium signal, replicate 2	retest calcium signal, replicate 1	retest calcium signal, replicate 2	Call
1	O-fut1 (GeneID 36564)	DRSC06138	181	183			inactive
2	Rint1 (GeneID 38807)	DRSC11010	137	90			inactive
3	CG9689 (GeneID 31922)	DRSC18440	115	105			inactive
4	NitFhit (GeneID 38029)	DRSC08680	91.6	154			inactive
5	tutl (GeneID 46015)	DRSC00441	75.6	105			inactive
6	tutl (GeneID 46015)	DRSC00442	91.7	104			inactive
7	tutl (GeneID 46015)	DRSC00443	86.5	105			inactive
8	Cyp4ac3 (GeneID 33756)	DRSC03304	112	157			inactive
9	por (GeneID 32818)	DRSC20362	96	115			inactive
10	NimC4 (GeneID 34824)	DRSC01945	123	115			inactive
11	CG3942 (GeneID 41489)	DRSC15525	131	101			inactive
12	CG10137 (GeneID 35241)	DRSC02014	90.1	157			inactive
13	CG10137 (GeneID 35241)	DRSC02015	150	81.3			inactive
14	Jhbp7 (GeneID 43035)	DRSC14408	192	131			inactive
15	tei (GeneID 36521)	DRSC07616	112	183			inactive
16	Cyp313a3 (GeneID 41488)	DRSC16626	61	83.8			active
17	L (GeneID 36609)	DRSC06666	114	105			inactive
18	L (GeneID 36609)	DRSC06668	94.7	143			inactive
19	Ccm3 (GeneID 41876)	DRSC15711	128	125			inactive
20	CG32984 (GeneID 34218)	DRSC21602	123	76.6			inactive
21	ND-49 (GeneID 43798)	DRSC17151	118	155			inactive
22	CG10182 (GeneID 42780)	DRSC14202	142	90.1			inactive
23	Egfrap (GeneID 3885637)	DRSC09963	82.8	75.2			inactive
24	Egfrap (GeneID 3885637)	DRSC09964	77.4	75.6			inactive
25	COX6AL2 (GeneID 40066)	DRSC10082	67.3	96.5			active
26	CG11601 (GeneID 33197)	DRSC00318	179	139			inactive
27	hgo (GeneID 34552)	DRSC03544	176	186			inactive
28	dlt (GeneID 46719)	DRSC08705	72.3	68.2			inactive
29	CG15347 (GeneID 31779)	DRSC18031	230	112			inactive
30	CG31548 (GeneID 318794)	DRSC22640	108	158			inactive
31	Pmvk (GeneID 35255)	DRSC02032	67.5	222			inactive
32	M6 (GeneID 40383)	DRSC11869	111	195			inactive
33	scf (GeneID 38145)	DRSC08735	66.3	98.2			inactive
34	CG10993 (GeneID 32344)	DRSC19362	59.1	81.1			active
35	CG8507 (GeneID 41205)	DRSC16435	148	100			inactive
36	rn (GeneID 40879)	DRSC12500	85.2	116			inactive
37	rn (GeneID 40879)	DRSC12543	85.9	166			inactive
38	rn (GeneID 40879)	DRSC12544	99.1	162			inactive
39	rn (GeneID 40879)	DRSC12546	85	107			inactive
40	rn (GeneID 40879)	DRSC22291	133	214			inactive
41	Vajk3 (GeneID 34812)	DRSC01883	99.1	141			inactive
42	Rac1 (GeneID 38146)	DRSC08688	82.4	87.4			inactive
43	Smyd4-4 (GeneID 36299)	DRSC05956	182	190			inactive
44	byn (GeneID 39349)	DRSC11332	91	71.5			inactive
45	Lamtor2 + CG30120	DRSC05726	120	97.6			inactive
46	Lamtor2 + CG30120	DRSC06922	169	152			inactive
47	CG12817 (GeneID 41250)	DRSC14555	95.3	78.5			inactive
48	CG11788 (GeneID 37295)	DRSC06084	166	128			inactive
49	CG42807 (GeneID 36511)	DRSC06966	128	201			inactive
50	CG18788 (GeneID 59164)	DRSC02697	106	172			inactive
51	sut3 (GeneID 44268)	DRSC07702	119	143			inactive
52	l(2)37Cb (GeneID 35192)	DRSC02095	115	144			inactive
53	mri (GeneID 38028)	DRSC08259	141	102			inactive
54	sad (GeneID 44858)	DRSC16630	183	92.9			inactive
55	D19B (GeneID 38717)	DRSC11134	90.7	78.9			inactive
56	Amph (GeneID 36383)	DRSC07578	164	185			inactive
57	CG11899 (GeneID 46391)	DRSC16656	109	91			inactive
58	side-VI (GeneID 4379854)	DRSC12828					inactive
59	side-VI (GeneID 4379854)	DRSC14920	168	74.6			inactive
60	side-VI (GeneID 4379854)	DRSC15624	194	72.8			inactive
61	side-VI (GeneID 4379854)	DRSC23088	98.8	122			inactive
62	CG10702 (GeneID 35181)	DRSC02097	96.4	123			inactive
63	RpL24 (GeneID 34754)	DRSC03185	78	114			active
64	Eaat1 (GeneID 34251)	DRSC03321	225	264			inactive
65	CG14488 (GeneID 37030)	DRSC06460	156	128			inactive
66	Nt5c (GeneID 35984)	DRSC06711	154	98.4			inactive
67	Lsp1alpha (GeneID 32199)	DRSC20258	66.6	104			active
68	CG2694 (GeneID 31260)	DRSC18470	110	144			inactive
69	Ufd4 (GeneID 34378)	DRSC02871	202	124			inactive
70	CG13587 (GeneID 37930)	DRSC04223	148	180			inactive
71	CG4860 (GeneID 41480)	DRSC15664	134	106	119	85.5	inactive
72	CG4860 (GeneID 41480)	DRSC21755	179	108			inactive
73	Gr59c (GeneID 192481)	DRSC04185	150	203			inactive
74	CG12826 (GeneID 35710)	DRSC06175	127	177			inactive
75	CG4768 (GeneID 32666)	DRSC19917	95.8	94	84.7	107	inactive
76	Spt20 (GeneID 39522)	DRSC10280	66.8	63			active
77	Spt20 (GeneID 39522)	DRSC22993	120	104			inactive
78	Mettl14 (GeneID 34138)	DRSC03073	119	139			inactive
79	CG11596 (GeneID 31158)	DRSC18540	81.2	102			inactive
80	CG10481 (GeneID 35273)	DRSC02063	118	106			inactive
81	nebu (GeneID 39458)	DRSC09807	134	77.4			inactive
82	nebu (GeneID 39458)	DRSC09808	68.3	101			inactive
83	sds22 (GeneID 42091)	DRSC17052	132	173			inactive
84	CG13946 (GeneID 50198)	DRSC00364	130	177			inactive
85	CG2812 (GeneID 37801)	DRSC04319	126	192			inactive
86	CG34038 (GeneID 3885596)	DRSC04039	119	81.9			inactive
87	CG18747 (GeneID 59143)	DRSC15384	142	138			inactive
88	CG33337 (GeneID 2768678)	DRSC13632	6335	162			inactive
89	CG10252 (GeneID 42794)	DRSC14221	170	201			inactive
90	CG2247 (GeneID 32111)	DRSC19844	162	109			inactive
91	CG4372 (GeneID 37490)	DRSC04466	181	99.2			inactive
92	AP-1sigma (GeneID 42835)	DRSC15899	140	123			inactive
93	CG1309 (GeneID 38519)	DRSC08302	105	124			inactive
94	CG31288 (GeneID 318664)	DRSC14667	262	132			inactive
95	CG6356 (GeneID 42893)	DRSC16026	202	149			inactive
96	TwdlH (GeneID 43208)	DRSC14735	59.6	77			active
97	CG3520 (GeneID 37708)	DRSC04383	168	202			inactive
98	CG13272 (GeneID 35013)	DRSC02249	70	93.5			active
99	CG13272 (GeneID 35013)	DRSC22910	125	161			inactive
100	Spn43Ab (GeneID 45040)	DRSC06781	106	103			inactive
101	CG16782 (GeneID 31313)	DRSC18118	85.9	97.4			inactive
102	CG31848 (GeneID 318980)	DRSC01309	277	188			inactive
103	CG10700 (GeneID 35183)	DRSC02096	162	80.1			inactive
104	E(z) (GeneID 39203)	DRSC11147	69.1	113			active
105	CG17199 (GeneID 42401)	DRSC15192	141	125			inactive
106	PsGEF (GeneID 31224)	DRSC18596	69.5	91.2			inactive
107	PsGEF (GeneID 31224)	DRSC18600	71.7	107			inactive
108	PsGEF (GeneID 31224)	DRSC18601	62.9	104			active

Records listed so far with an active call:
target gene	dsRNA	calcium signal, replicate 1	calcium signal, replicate 2	retest calcium signal, replicate 1	retest calcium signal, replicate 2	Call
Cyp313a3 (GeneID 41488)	DRSC16626	61	83.8			active
COX6AL2 (GeneID 40066)	DRSC10082	67.3	96.5			active
CG10993 (GeneID 32344)	DRSC19362	59.1	81.1			active
RpL24 (GeneID 34754)	DRSC03185	78	114			active
Lsp1alpha (GeneID 32199)	DRSC20258	66.6	104			active
Spt20 (GeneID 39522)	DRSC10280	66.8	63			active
TwdlH (GeneID 43208)	DRSC14735	59.6	77			active
CG13272 (GeneID 35013)	DRSC02249	70	93.5			active
E(z) (GeneID 39203)	DRSC11147	69.1	113			active
PsGEF (GeneID 31224)	DRSC18601	62.9	104			active
